Results: PubChem BioAssay AID2685 (National Center for Advancing Translational Sciences (NCATS), 2010)
Some of the results follow. The main result of the screen is listed elsewhere. These columns were measured beside it and carry no call. The list favours compounds with an active or inconclusive main result. Potencies come from curve fits of mixed quality, noted in brackets.

Experiment: qHTS Assay for Lipid Storage Modulators in Drosophila S3 Cells;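 as to cell number change: cells counted by Cell Tracker Red CMTPX staining in the red channel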
Settings: BODIPY lipid droplet fluorescence, 18-24 h; for cell number change: measured here: cell count max response, cells fed with added oleic acid
How it was run: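 Laser-scanning cytometry quantifies lipid droplet accumulation (500–530 nm total intensity; droplet/cell object ratio) in oleic acid-fed (400 uM added) Drosophila S3 cells treated with a concentration series. 20 uM Triacsin C defined 100% inhibition.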

[1] = measured here: lipid fluorescence (Fed channel) AC50, cells fed with added oleic acid
[2] = measured here: cell number channel AC50, cells fed with added oleic acid

| Compound | cell number change [%] | AC50 [1] | AC50 [2] |
| --- | --- | --- | --- |
| CN1CCN(Cc2cc(C(C)(C)C)c(O)c(C(C)(C)C)c2)CC1 | 10.8 | 5.8 µM [falling, single point] |  |
| O=P(CN1CCN(c2ccccc2)CC1)(N1CCCCC1)N1CCCCC1 |  | 1.16 µM [rising, full curve] | 1.16 µM [rising, full curve] |
| CC(C)c1c(CN(C)C(C)Cc2ccccc2)n(C)n(-c2ccccc2)c1=O (configuration not stated) | 54 | 8.2 µM [rising, partial curve] | 14.6 µM [rising, partial curve] |
| CCOC(=O)C1C(=O)N(C)C2(C)CC1c1cc(OC)ccc1O2 (configuration not stated) | 17.5 | 2.31 µM [falling, partial curve] |  |
| Cc1cccc(-n2c(O)c(C)c(=O)[nH]c2=S)c1 | -22.3 | 29.1 µM [falling, single point] |  |
| CN1CCN(P(=O)(c2ccccc2)c2nc3ccccc3s2)CC1 (configuration not stated) |  |  | 6.51 µM [falling, full curve] |
| Nc1ccccc1Cl | 3.16 |  |  |
| C/C(=N\N1CCCCCC1)c1c(O)n(-c2ccccc2)c(=O)[nH]c1=O | -66.7 | 6.51 µM [falling, single point] | 29.1 µM [falling, partial curve, poor fit] |
| COC(=O)C1=C(c2ccc(F)cc2OCc2ccccc2)C[C@@H]2CC[C@H]1N2C(=O)N1CCOCC1 | 11.8 |  |  |
| CC1=C(C(=O)OC(C)C)[C@]2(C(=O)N(CC(N)=O)c3ccccc32)C(C#N)=C(N)O1 |  | 16.4 µM [falling, single point] |  |
| Cc1c(N=Cc2c(O)n(Cc3ccccc3)c(=O)[nH]c2=O)c(=O)n(-c2ccccc2)n1C | 1.09 | 7.31 µM [rising, partial curve, poor fit] |  |
| Cc1ccccc1CCNCc1cc2cccc(C)c2[nH]c1=O | -40.9 | 10.3 µM [falling, partial curve] | 11.6 µM [falling, partial curve] |
| O=C1NC(=O)N(c2ccccc2)C(=O)/C1=C/C=C/c1ccco1 | -32.6 | 0.731 µM [falling, partial curve, poor fit] | 0.259 µM [falling, full curve, poor fit] |
| CC(C)(C#CC(=O)O)OOC(c1ccccc1)(c1ccccc1)c1ccccc1 | 23.6 | 0.58 µM [falling, single point] |  |
| O=C(Nc1ccccc1)NC1CC2CCC(C1)N2 (configuration not stated) | -2.23 | 1.3 µM [falling, full curve] |  |
| Nc1c2c(nc3sc4c(c13)CCCCC4)CCCC2 | 6.9 | 3.66 µM [rising, single point] | 0.103 µM [rising, full curve, poor fit] |
| COC(=O)C1=C(c2ccc(-c3ccccc3)c(F)c2)C[C@@H]2CC[C@H]1N2C(=O)NC1CC1 | -12.3 | 3.66 µM [rising, full curve, poor fit] |  |
| Cc1nc2ccccc2c(=O)n1-c1cc(F)ccc1F | 23.2 |  |  |

An excerpt of these results, with tabs:
Compound	cell number change [%]	AC50 [1]	AC50 [2]
Nc1ccccc1Cl	3.16		
C/C(=N\N1CCCCCC1)c1c(O)n(-c2ccccc2)c(=O)[nH]c1=O	-66.7	6.51 µM [falling, single point]	29.1 µM [falling, partial curve, poor fit]
COC(=O)C1=C(c2ccc(F)cc2OCc2ccccc2)C[C@@H]2CC[C@H]1N2C(=O)N1CCOCC1	11.8		
CC1=C(C(=O)OC(C)C)[C@]2(C(=O)N(CC(N)=O)c3ccccc32)C(C#N)=C(N)O1		16.4 µM [falling, single point]	
Cc1c(N=Cc2c(O)n(Cc3ccccc3)c(=O)[nH]c2=O)c(=O)n(-c2ccccc2)n1C	1.09	7.31 µM [rising, partial curve, poor fit]	
Cc1ccccc1CCNCc1cc2cccc(C)c2[nH]c1=O	-40.9	10.3 µM [falling, partial curve]	11.6 µM [falling, partial curve]
O=C1NC(=O)N(c2ccccc2)C(=O)/C1=C/C=C/c1ccco1	-32.6	0.731 µM [falling, partial curve, poor fit]	0.259 µM [falling, full curve, poor fit]
CC(C)(C#CC(=O)O)OOC(c1ccccc1)(c1ccccc1)c1ccccc1	23.6	0.58 µM [falling, single point]	
O=C(Nc1ccccc1)NC1CC2CCC(C1)N2 (configuration not stated)	-2.23	1.3 µM [falling, full curve]	

Later entries.

| Compound | cell number change [%] | AC50 [1] | AC50 [2] |
| --- | --- | --- | --- |
| Cc1ccc(S(=O)(=O)N2CN3CCN(C3)C2)cc1 | -13.7 | 6.51 µM [falling, single point] |  |
| COc1cccc(CN2CCN(Cc3cccc(F)c3)CC2)c1 | 6.99 | 0.58 µM [rising, full curve, poor fit] |  |
| COC(=O)C1=C(c2ccc(C(C)=O)cc2)C[C@@H]2CC[C@H]1N2C(=O)N1CCC(O)(c2ccc(Cl)cc2)CC1 | -6.32 | 0.184 µM [rising, partial curve] |  |
| Oc1c(Cl)cc(Cl)cc1CN1CCN(Cc2ccccc2)CC1 | -24.1 | 18.4 µM [falling, single point] |  |
| Clc1ccc(CCC(Cn2ccnc2)Sc2c(Cl)cccc2Cl)cc1 (configuration not stated) | -71.8 | 29.1 µM [falling, single point] | 29.1 µM [falling, single point] |
| CC(=NCc1ccc2c(c1)OCO2)c1c(O)n(-c2ccc(C)cc2)c(=O)[nH]c1=O |  | 2.06 µM [rising, single point] |  |
| O=C1CCN(C(=O)C(Cl)Cl)N1 | -10.3 | 0.82 µM [falling, full curve] |  |
| C=CCn1c(O)c(C(CC)=Nc2ccc(N(CC)CC)cc2)c(=O)[nH]c1=O | 9.19 | 16.4 µM [rising, single point] |  |
| COc1ccc(F)cc1C(=O)C1CCCN(Cc2ccc(O)cc2)C1 (configuration not stated) | -11.4 |  |  |
| Nc1c(C(=O)OCc2ccccc2)c2nc3ccccc3nc2n1Cc1cccs1 |  | 1.3 µM [rising, full curve] | 0.651 µM [rising, full curve] |
| O=C1NC(=O)N(c2ccccc2)C(=O)/C1=C/c1ccc([N+](=O)[O-])s1 | -7.24 |  | 0.0651 µM [falling, full curve, poor fit] |
| COc1ccc(OCC(=O)N2CCN(C/C=C/c3ccccc3)CC2)cc1 | -3.5 |  | 0.00461 µM [rising, full curve, poor fit] |
| Cc1nc2ccccc2c(=O)n1-c1ccc(C(=O)O)cc1 |  | 0.0058 µM [rising, full curve, poor fit] |  |
| CC(=O)OCC(=O)[C@H]1CC[C@H]2[C@@H]3CC[C@H]4C[C@H](O)CC[C@]4(C)[C@H]3C(=O)C[C@]12C | 9.99 | 0.164 µM [rising, full curve, poor fit] |  |
| Fc1ccc2c(c1)nnn2C1CCN(Cc2nnnn2C2CCCCC2)CC1 | -24.5 | 0.82 µM [falling, single point] |  |
| COC(=O)C1=C(c2cccc(C#N)c2)C[C@@H]2CC[C@H]1N2C(=O)NCc1cccc2ccccc12 | 14.3 | 0.0326 µM [rising, partial curve, poor fit] |  |
| O=c1[nH]c(CN2CC=C(c3ccccc3)CC2)nc2scc(-c3cccs3)c12 | 10.2 | 6.51 µM [falling, single point] | 6.51 µM [falling, single point] |
| CC(=O)c1cccc(OCC(=O)N2CCN(CC(=O)Nc3cccc(F)c3)CC2)c1 | -32.6 | 2.59 µM [rising, full curve] | 10.3 µM [falling, partial curve] |
